Results from article PMC6305308.
These are yes or no findings as the source states them, for the method shown.

Target: T1, CtsR of Oenococcus oeni (Oenococcus oeni ATCC BAA-1163) (UniProt Q4A3D8)
T1 sequence: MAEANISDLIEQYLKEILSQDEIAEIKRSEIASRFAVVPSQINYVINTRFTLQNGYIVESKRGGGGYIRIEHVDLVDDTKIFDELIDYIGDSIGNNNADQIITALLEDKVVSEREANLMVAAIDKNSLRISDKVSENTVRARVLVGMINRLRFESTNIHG
Experiment: two-hybrid; BACTH (bacterial adenylate cyclase two-hybrid) in E. coli DHT1 cya-; T25 and T18 hybrids co-expressed in all combinations; grown at 28°C with 0.5 mM IPTG; β-galactosidase activity of permeabilised cells in relative units; mean of six independent clones; negative control (non-fused T25 and T18) about 20 units

binding: no binding
Substance: ClpL2 of Oenococcus oeni (from UniProt Q4A3X2 1-711)
